# Data as given in PubChem BioAssay AID1259308 (NCATS, 2017).
# Screen: 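Knock-downs that increase output of a recombinant reporter protein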 (primary screen)
# Cell system: human HEK293 embryonic kidney cells stably expressing firefly luciferase (HEK-CMV-Luc2-Hygro)
# Knock-down reagent: single siRNA against human genes, 0.8 pmol siRNA per well
# Timing: 72 h
# Measurement: 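Luciferase light (ONE-Glo) measured on one replicate plate set and viability (CellTiter-Glo) on the other, scaled to a negative control siRNA, with robust z-scores and luciferase per cell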
# Scale: total luciferase, z-score and total luciferase, % of control: higher = more reporter protein produced; luciferase per cell, z-score: higher = more reporter output per viable cell; viable cells, % of control: higher = more viable cells
# Call rule: 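Active when the median/MAD z-score for overall luciferase is greater than 3; a gene was taken forward for validation with new siRNAs if at least two of its three siRNAs passed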
# Calls: active = raised luciferase; inactive = no rise
# In all, the deposit lists about 59,000 reagents; this is an unselected part. About 1,510 of all reagents (2.6%) were called active. 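Calls use total luciferase alone and ignore viability, so some active siRNAs may act by altering cell number.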 The numbers tell different reagents against one gene apart. Reagent sequences are not shown.
target,reagent,"total luciferase, z-score","total luciferase, % of control","luciferase per cell, z-score","viable cells, % of control",outcome
SLA2 (Src like adaptor 2),1,0.253,86.9,0.927,76.1,inactive
SLA2 (Src like adaptor 2),2,0.0782,83.4,-0.317,101,inactive
SLA2 (Src like adaptor 2),3,-1.72,47.6,-1.03,69.8,inactive
DPP3 (dipeptidyl peptidase 3),1,-0.435,73.2,-1.01,107,inactive
DPP3 (dipeptidyl peptidase 3),2,1.45,111,0.761,101,inactive
DPP3 (dipeptidyl peptidase 3),3,-0.86,64.8,-0.796,89.3,inactive
LILRA4 (leukocyte immunoglobulin like receptor A4),1,-0.233,77.3,-0.53,99.2,inactive
LILRA4 (leukocyte immunoglobulin like receptor A4),2,1.24,106,0.799,96.4,inactive
LILRA4 (leukocyte immunoglobulin like receptor A4),3,3.49,151,1.88,103,active
ZDHHC2 (zDHHC palmitoyltransferase 2),1,0.2,85.9,-0.25,102,inactive
ZDHHC2 (zDHHC palmitoyltransferase 2),2,-0.865,64.7,-0.557,83.7,inactive
ZDHHC2 (zDHHC palmitoyltransferase 2),3,-0.693,68.1,-0.478,86.3,inactive
REPS2 (RALBP1 associated Eps domain containing 2),1,0.288,87.6,0.0289,97.2,inactive
REPS2 (RALBP1 associated Eps domain containing 2),2,-0.0603,80.7,0.228,84.9,inactive
REPS2 (RALBP1 associated Eps domain containing 2),3,-1.61,50,-1.57,84.3,inactive
CCDC81 (coiled-coil domain containing 81),1,4.5,171,4.49,58.6,active
CCDC81 (coiled-coil domain containing 81),2,0.932,100,0.383,101,inactive
CCDC81 (coiled-coil domain containing 81),3,-0.229,77.3,-0.188,90.8,inactive
SIGLEC10 (sialic acid binding Ig like lectin 10),1,-1.05,61.1,-0.518,78.2,inactive
SIGLEC10 (sialic acid binding Ig like lectin 10),2,0.698,95.8,1.04,81.3,inactive
SIGLEC10 (sialic acid binding Ig like lectin 10),3,-0.251,76.9,-0.684,103,inactive
UNC80 (unc-80 subunit of NALCN channel complex),1,0.413,90.1,0.808,81.4,inactive
UNC80 (unc-80 subunit of NALCN channel complex),2,0.921,100,1.08,84.2,inactive
UNC80 (unc-80 subunit of NALCN channel complex),3,-1.48,52.5,-0.263,62.9,inactive

3 entries already listed, arranged by “luciferase per cell, z-score”, ascending.
target,reagent,"total luciferase, z-score","total luciferase, % of control","luciferase per cell, z-score","viable cells, % of control",outcome
CCDC81 (coiled-coil domain containing 81),3,-0.229,77.3,-0.188,90.8,inactive
CCDC81 (coiled-coil domain containing 81),2,0.932,100,0.383,101,inactive
CCDC81 (coiled-coil domain containing 81),1,4.5,171,4.49,58.6,active
